According to US20240238278A1, “Pharmaceutical Composition for Preventing or Treating Fibrosis” (Daewoong Pharmaceutical Co., Ltd., priority 2021, published 2024):
The name of at least one read-out is uncertain.

Legend:
[1] = Human pharmacokinetics, single administration; format: in vivo; details: healthy adults, empty stomach
Procedure: The formulation used in the clinical trial was prepared in the same manner as in Preparation Examples 1 and 2.

[2] = Pharmacokinetic model prediction of exposure in humans at various oral doses; design: species or system human; details: model-predicted
Description: Therefore, the optimal pharmacokinetic model parameters that can explain the changes in concentrations at all doses observed using Excel® and WinNonlin8.1 software were estimated for the blood drug concentration obtained in the human multidose clinical trial.

Compound: O[C@H]1CCCN[C@@H]1CCCn1cnc2c(Cl)c(Cl)ccc21 [Active component]
- Vz/F ([1]; single oral 100 mg, enteric coated capsules): 1560.44 L
- Vz/F ([1]; single oral 300 mg, enteric coated capsules): 2361.87 L
- Vz/F ([1]; single oral 500 mg, enteric coated tablet): 2406.62 L
- Vz/F ([1]; single oral 600 mg, enteric coated capsules): 4459.07 L
- Vd/F ([2]; oral Dose 50 mg): 3037295 mL
- Vd/F ([2]; oral Dose 100 mg): 3037295 mL
- Vd/F ([2]; oral Dose 150 mg): 3037295 mL
- Vd/F ([2]; oral Dose 200 mg): 3037293 mL
